This passage reports binding results from publication PMC5718613.

By UniProt entry, the sequences of proteins in these tests, tags left out.
UniProt Q2G185: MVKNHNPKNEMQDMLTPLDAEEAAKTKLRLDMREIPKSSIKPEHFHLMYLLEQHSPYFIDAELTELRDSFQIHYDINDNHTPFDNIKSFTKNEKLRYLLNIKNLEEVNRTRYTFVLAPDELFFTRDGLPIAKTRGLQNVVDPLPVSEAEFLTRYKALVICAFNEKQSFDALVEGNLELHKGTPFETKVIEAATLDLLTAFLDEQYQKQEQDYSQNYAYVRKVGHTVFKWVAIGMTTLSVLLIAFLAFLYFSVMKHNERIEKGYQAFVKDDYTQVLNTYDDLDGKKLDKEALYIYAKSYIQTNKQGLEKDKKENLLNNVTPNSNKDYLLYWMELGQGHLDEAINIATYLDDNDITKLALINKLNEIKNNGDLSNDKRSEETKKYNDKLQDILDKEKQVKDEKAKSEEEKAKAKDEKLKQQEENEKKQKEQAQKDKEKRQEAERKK
UniProt Q2G184: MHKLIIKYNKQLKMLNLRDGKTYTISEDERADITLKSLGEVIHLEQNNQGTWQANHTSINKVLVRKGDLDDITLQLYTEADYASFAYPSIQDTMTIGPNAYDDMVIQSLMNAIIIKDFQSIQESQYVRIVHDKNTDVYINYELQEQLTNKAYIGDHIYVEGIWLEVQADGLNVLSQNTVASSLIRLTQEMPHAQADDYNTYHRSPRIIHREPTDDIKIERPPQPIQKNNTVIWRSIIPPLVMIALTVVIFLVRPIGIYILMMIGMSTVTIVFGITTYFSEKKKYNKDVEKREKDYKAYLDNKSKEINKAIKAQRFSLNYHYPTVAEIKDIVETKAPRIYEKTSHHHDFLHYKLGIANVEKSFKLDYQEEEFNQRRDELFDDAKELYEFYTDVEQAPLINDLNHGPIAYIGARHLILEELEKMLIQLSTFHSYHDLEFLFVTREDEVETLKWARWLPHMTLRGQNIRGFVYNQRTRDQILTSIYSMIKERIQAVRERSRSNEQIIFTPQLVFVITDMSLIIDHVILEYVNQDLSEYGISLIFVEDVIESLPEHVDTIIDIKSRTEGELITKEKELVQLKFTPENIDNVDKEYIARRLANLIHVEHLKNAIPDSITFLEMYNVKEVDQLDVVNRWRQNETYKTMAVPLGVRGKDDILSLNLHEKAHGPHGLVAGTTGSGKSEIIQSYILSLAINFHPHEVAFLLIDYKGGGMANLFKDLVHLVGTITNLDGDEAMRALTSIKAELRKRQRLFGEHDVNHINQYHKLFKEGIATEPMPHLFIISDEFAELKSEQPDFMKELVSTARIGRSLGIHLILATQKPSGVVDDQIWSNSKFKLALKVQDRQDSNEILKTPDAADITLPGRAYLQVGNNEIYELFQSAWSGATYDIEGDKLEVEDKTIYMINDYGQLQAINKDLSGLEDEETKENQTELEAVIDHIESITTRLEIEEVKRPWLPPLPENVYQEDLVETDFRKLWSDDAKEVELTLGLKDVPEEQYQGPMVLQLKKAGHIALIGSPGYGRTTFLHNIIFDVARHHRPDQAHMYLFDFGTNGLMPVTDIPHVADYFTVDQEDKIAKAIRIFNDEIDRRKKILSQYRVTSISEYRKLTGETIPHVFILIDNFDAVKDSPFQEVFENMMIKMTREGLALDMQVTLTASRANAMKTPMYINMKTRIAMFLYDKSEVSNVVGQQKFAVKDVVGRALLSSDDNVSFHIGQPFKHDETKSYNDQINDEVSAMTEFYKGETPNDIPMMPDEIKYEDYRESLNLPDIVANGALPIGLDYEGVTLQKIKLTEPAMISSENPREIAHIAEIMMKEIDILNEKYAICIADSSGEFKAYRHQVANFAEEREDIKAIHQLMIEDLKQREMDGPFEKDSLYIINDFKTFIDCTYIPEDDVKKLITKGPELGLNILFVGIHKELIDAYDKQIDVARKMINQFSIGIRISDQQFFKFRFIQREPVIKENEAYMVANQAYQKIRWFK
UniProt Q2G188: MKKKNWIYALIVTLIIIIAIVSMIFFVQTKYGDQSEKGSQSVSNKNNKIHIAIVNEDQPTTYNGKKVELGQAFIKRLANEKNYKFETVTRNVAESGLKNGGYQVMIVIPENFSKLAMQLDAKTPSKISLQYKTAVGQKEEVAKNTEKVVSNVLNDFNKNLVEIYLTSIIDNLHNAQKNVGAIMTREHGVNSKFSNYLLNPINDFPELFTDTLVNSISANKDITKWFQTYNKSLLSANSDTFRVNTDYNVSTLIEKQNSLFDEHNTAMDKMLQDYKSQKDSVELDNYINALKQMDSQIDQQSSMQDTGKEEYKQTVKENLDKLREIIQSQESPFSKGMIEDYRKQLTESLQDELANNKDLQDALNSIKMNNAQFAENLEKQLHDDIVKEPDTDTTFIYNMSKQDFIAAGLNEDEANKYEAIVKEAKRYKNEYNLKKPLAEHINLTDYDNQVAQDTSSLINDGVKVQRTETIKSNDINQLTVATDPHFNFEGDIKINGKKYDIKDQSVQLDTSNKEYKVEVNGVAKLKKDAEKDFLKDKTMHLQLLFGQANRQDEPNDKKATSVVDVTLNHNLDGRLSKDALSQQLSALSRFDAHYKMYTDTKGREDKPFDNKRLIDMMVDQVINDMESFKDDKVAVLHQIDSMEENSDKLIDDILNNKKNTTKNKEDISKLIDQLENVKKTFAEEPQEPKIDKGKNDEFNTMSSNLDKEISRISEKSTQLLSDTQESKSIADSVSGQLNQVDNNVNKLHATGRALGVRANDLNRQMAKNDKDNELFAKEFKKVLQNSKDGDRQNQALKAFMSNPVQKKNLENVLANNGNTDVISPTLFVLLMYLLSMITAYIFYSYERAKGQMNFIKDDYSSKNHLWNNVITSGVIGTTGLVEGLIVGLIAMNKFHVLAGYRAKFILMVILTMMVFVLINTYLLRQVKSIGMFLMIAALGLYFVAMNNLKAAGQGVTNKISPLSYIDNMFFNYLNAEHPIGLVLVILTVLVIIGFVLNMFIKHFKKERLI

The target of this test is FLAG-EssB (S. aureus) (UniProt Q2G185). The experiment in a line: co-IP; M2 FLAG-capture beads hold FLAG-EssB; S. aureus membrane fractions solubilized in 50 mM Tris-HCl pH 7.5, 50 mM NaCl, 0.25% DDM; 2 h, 4°C; wild type background (EssC and the EsaA fragment also in ΔfloA, comparable amounts); immunoblot with anti-EsaA, anti-EssC, anti-mCherry. (In general: Immunoblotting shows a protein as a band on a membrane.)

No constants are given. Whether binding was seen depends on the method and setting. In cells and extracts the contact can be indirect. Some binding calls cover weakened binding; strength is not graded here.

EssC (from UniProt Q2G184 1-1479): the binding result is recorded as “binds”. As for “full-length EsaA (from UniProt Q2G188 1-1009)”, the binding result is on record as “no binding”.
